Among the data in patent US6482921B1 (Essential Therapeutics, Inc., priority 1999, dated 2002) are step yield values, retold here.

The nature of this data set: general procedure: solution-phase peptide synthesis; pentafluorophenyl ester. The conditions noted are these: late stage modification step, TFA salt.
Dihydropacidamycin 1: the step yield was 10% yield.

Regarding Dihydropacidamycin 4, the step yield came to 26% yield. Next, Tetrahydropacidamycin D: 5% yield.
